According to patent US20050086714A1, “Eucalyptus transformation method” (AGRIGENESIS BIOSCIENCES LIMITED, priority 2003, published 2005):
For at least one compound, name, drawing or mass did not settle the structure.

System: wild type internode explants of E. grandis clone 8 or C101
Assay: Effect of kanamycin level on shoot regeneration from wild type explants
Format: cell-based, Eucalyptus grandis
Details: medium with 30 to 50 mg/l kanamycin
Description: A range of kanamycin concentrations (0, 5, 10, 15, 20, 30, 40 and 50 mg/l) were then tested in four experiments to determine the minimum level of kanamycin for inhibiting regeneration from the wild type internode explants (Table 5).
Fifty internode explants of the E. grandis clone 8 or C101 were cultured on each of the eight media consisting of EuCo14 supplemented with kanamycin at eight different concentrations, namely 0, 5, 10, 15, 20, 30, 40 and 50 mg/l. […] An excessive level of kanamycin kills non-transformed cells in the explant early in the selection stages. This will reduce the regeneration from transformed cells which would be surrounded by these dead non-transformed cells.

For `NC[C@H]1O[C@H](O[C@H]2[C@H](O)[C@@H](O[C@H]3O[C@H](CO)[C@@H](O)[C@H](N)[C@H]3O)[C@H](N)C[C@@H]2N)[C@H](O)[C@@H](O)[C@@H]1O` [Kanamycin, kanamycin], the regeneration was “no regeneration”.
